From publication PMC6796953 come the findings set out here.

No constants are given. Whether binding was seen depends on the method and setting. Binding seen in cells or lysates may run through a third protein. Binding can be weak; no strength is given.

The experiment concerns the target GFP-zRbm14b (zebrafish). Briefly: co-IP; GFP, GFP-mRbm14 or GFP-zRbm14b expressed in HeLa cells, immunoprecipitated with anti-GFP resin; immunoblot for endogenous hnRNP proteins. In general terms: In western blotting, separated proteins are transferred to a membrane and probed.

B1: hnRNPL (human) (protein, UniProt P14866 1-589)
chain: MSRRLLPRAEKRRRRLEQRQQPDEQRRRSGAMVKMAAAGGGGGGGRYYGGGSEGGRAPKRLKTDNAGDQHGGGGGGGGGAGAAGGGGGGENYDDPHKTPASPVVHIRGLIDGVVEADLVEALQEFGPISYVVVMPKKRQALVEFEDVLGACNAVNYAADNQIYIAGHPAFVNYSTSQKISRPGDSDDSRSVNSVLLFTILNPIYSITTDVLYTICNPCGPVQRIVIFRKNGVQAMVEFDSVQSAQRAKASLNGADIYSGCCTLKIEYAKPTRLNVFKNDQDTWDYTNPNLSGQGDPGSNPNKRQRQPPLLGDHPAEYGGPHGGYHSHYHDEGYGPPPPHYEGRRMGPPVGGHRRGPSRYGPQYGHPPPPPPPPEYGPHADSPVLMVYGLDQSKMNCDRVFNVFCLYGNVEKVKFMKSKPGAAMVEMADGYAVDRAITHLNNNFMFGQKLNVCVSKQPAIMPGQSYGLEDGSCSYKDFSESRNNRFSTPEQAAKNRIQHPSNVLHFFNAPLEVTEENFFEICDELGVKRPSSVKVFSGKSERSSSGLLEWESKSDALETLGFLNHYQMKNPNGPYPYTLKLCFSTAQHAS
B1: the binding result is listed as “binds”.
